PubChem BioAssay AID686938 – Drosophila RNAi Screening Center | 2013

Screen: 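Knock-downs reducing store-operated calcium influx in Drosophila cells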 (primary screen)
System: Drosophila S2R+ cells
Reagent: long dsRNA against Drosophila genes, about 0.25 µg dsRNA per well, roughly 10,000 cells
Duration: 5 days of knock-down before the calcium assay
Conditions: thapsigargin (SERCA pump blocker) to empty calcium stores; entry signal taken 4 min after adding it
Read-out: 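Per-well fluo-4 fluorescence in two replicates, unnormalised, measured in resting cells and 4 min after store depletion by the SERCA blocker thapsigargin; ratio of the two present in few wells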
Direction: calcium entry signal: higher = stronger calcium signal after store depletion; entry to resting ratio: higher = more calcium entry relative to resting level; resting calcium signal: higher = higher resting calcium signal
Hit rule: 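Called when the plate z-score of the entry-to-rest ratio, mean of duplicates, falls below −3; wells with low overall dye signal (Fmax z below −2) or more than five off-targets excluded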
Meaning of the calls: active = strongly reduced calcium entry; inactive = no strong reduction
In all, the deposit lists about 23,000 reagents; shown is an unselected part of those that have a named target and a result. Over the whole deposit, 75 (0.33%) were called active. 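Raw plate signals without normalisation; calls rest on plate z-scores that were not deposited; ratio present for only 364 wells.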 Names joined by + are all predicted targets of the reagent. Reagent sequences are not shown. Not stated in the record: the dose of the treatment.

| target gene | DRSC id | calcium entry signal, replicate 1 (fluorescence units) | calcium entry signal, replicate 2 (fluorescence units) | entry to resting ratio | resting calcium signal, replicate 1 (fluorescence units) | resting calcium signal, replicate 2 (fluorescence units) | activity call |
| --- | --- | --- | --- | --- | --- | --- | --- |
| Atg10 + CG18853 + CG12822 | DRSC20757 | 4.67e7 | 4.06e7 | – | 2.33e7 | 2.11e7 | inactive |
| obst-I (obstructor-I) | DRSC08339 | 4.37e7 | 3.57e7 | – | 1.87e7 | 1.73e7 | inactive |
| CG31635 | DRSC02273 | 1.98e7 | 2.32e7 | – | 1.05e7 | 1.05e7 | inactive |
| CG31635 | DRSC02274 | 3.01e7 | 2.87e7 | – | 1.50e7 | 1.47e7 | inactive |
| Cpr78Cc (Cuticular protein 78Cc) | DRSC11846 | 2.20e7 | 3.14e7 | – | 1.07e7 | 1.55e7 | inactive |
| JMJD7 (Jumonji domain containing 7) | DRSC09703 | 7.28e7 | 3.06e7 | – | 3.04e7 | 1.62e7 | inactive |
| CG9570 | DRSC20687 | 5.80e7 | 3.88e7 | – | 2.77e7 | 1.71e7 | inactive |
| alpha-Est10 (alpha-Esterase-10) | DRSC12613 | 3.82e7 | 3.26e7 | – | 1.78e7 | 1.57e7 | inactive |
| Dbct (Dihydrolipoamide branched chain transacylase E2) | DRSC19951 | 3.10e7 | 3.05e7 | – | 1.45e7 | 1.46e7 | inactive |
| CG3038 | DRSC18618 | 3.83e7 | 5.96e7 | 2.1 | 1.85e7 | 2.62e7 | inactive |
| Roc2 (Regulator of cullins 2) | DRSC07313 | 3.38e7 | 3.70e7 | – | 1.78e7 | 1.84e7 | inactive |
| nahoda | DRSC03954 | 3.02e7 | 6.40e7 | – | 1.44e7 | 2.58e7 | inactive |
| nahoda | DRSC04126 | 3.99e7 | – | – | 1.76e7 | – | inactive |
| CG43088 | DRSC19055 | 3.34e7 | 4.28e7 | – | 1.76e7 | 1.83e7 | inactive |
| CG43088 | DRSC21407 | 3.54e7 | 3.66e7 | – | 2.04e7 | 1.75e7 | inactive |
| RpS29 + snoRNA:Psi18S-1275 | DRSC16433 | 1.51e7 | 1.96e7 | – | 1.03e7 | 1.29e7 | inactive |
| chb (chromosome bows) | DRSC11469 | 3.07e7 | 2.84e7 | – | 1.58e7 | 1.56e7 | inactive |
| CG3534 | DRSC15494 | 2.99e7 | 4.48e7 | – | 1.42e7 | 5.94e7 | inactive |
| daw (dawdle) | DRSC00479 | 3.88e7 | – | – | 2.04e7 | – | inactive |
| Shawn + Tyler | DRSC19564 | 2.09e7 | 2.83e7 | – | 1.13e7 | 1.24e7 | inactive |
| Shawn + Tyler | DRSC19565 | 4.01e7 | 3.55e7 | – | 2.08e7 | 1.63e7 | inactive |
| CG13727 | DRSC10055 | 4.69e7 | 5.47e7 | – | 2.14e7 | 2.37e7 | inactive |
| Eaat2 (Excitatory amino acid transporter 2) | DRSC00032 | 2.51e7 | 3.32e7 | – | 1.39e7 | 1.52e7 | inactive |
| Eaat2 (Excitatory amino acid transporter 2) | DRSC00749 | 3.66e7 | – | – | 2.04e7 | – | inactive |
| Fife | DRSC08262 | 4.54e7 | 3.85e7 | – | 2.46e7 | 2.10e7 | inactive |
| Fife | DRSC08409 | 4.56e7 | 4.84e7 | – | 2.25e7 | 2.15e7 | inactive |
| Fife | DRSC08499 | 4.14e7 | 4.68e7 | – | 2.04e7 | 2.08e7 | inactive |
| lectin-24A | DRSC00604 | 4.16e7 | 3.81e7 | – | 1.90e7 | 1.70e7 | inactive |
| Chchd2 (Coiled-coil-helix-coiled-coil-helix domain containing 2) | DRSC19931 | 4.49e7 | 2.92e7 | – | 2.28e7 | 1.53e7 | inactive |
| Ndc80 | DRSC20221 | 3.73e7 | 3.66e7 | – | 1.84e7 | 2.06e7 | inactive |
| Ndc80 | DRSC21726 | 2.29e7 | 2.49e7 | – | 1.36e7 | 1.11e7 | inactive |
| lectin-46Ca | DRSC06612 | 3.13e7 | 4.86e7 | – | 1.31e7 | 2.32e7 | inactive |
| CG15864 | DRSC15122 | 5.21e7 | 4.02e7 | – | 2.56e7 | 1.83e7 | inactive |
| CtsF (Cathepsin F) | DRSC12056 | 2.04e7 | 2.66e7 | – | 1.05e7 | 1.25e7 | inactive |
| CtsF (Cathepsin F) | DRSC12195 | 2.10e7 | 2.74e7 | – | 1.03e7 | 1.21e7 | inactive |
| CtsF (Cathepsin F) | DRSC12196 | 3.80e7 | 1.88e7 | – | 1.82e7 | 9.90e6 | inactive |

The list goes on, starting with the last 7 of the part before.
| target gene | DRSC id | calcium entry signal, replicate 1 (fluorescence units) | calcium entry signal, replicate 2 (fluorescence units) | entry to resting ratio | resting calcium signal, replicate 1 (fluorescence units) | resting calcium signal, replicate 2 (fluorescence units) | activity call |
| --- | --- | --- | --- | --- | --- | --- | --- |
| Ndc80 | DRSC20221 | 3.73e7 | 3.66e7 | – | 1.84e7 | 2.06e7 | inactive |
| Ndc80 | DRSC21726 | 2.29e7 | 2.49e7 | – | 1.36e7 | 1.11e7 | inactive |
| lectin-46Ca | DRSC06612 | 3.13e7 | 4.86e7 | – | 1.31e7 | 2.32e7 | inactive |
| CG15864 | DRSC15122 | 5.21e7 | 4.02e7 | – | 2.56e7 | 1.83e7 | inactive |
| CtsF (Cathepsin F) | DRSC12056 | 2.04e7 | 2.66e7 | – | 1.05e7 | 1.25e7 | inactive |
| CtsF (Cathepsin F) | DRSC12195 | 2.10e7 | 2.74e7 | – | 1.03e7 | 1.21e7 | inactive |
| CtsF (Cathepsin F) | DRSC12196 | 3.80e7 | 1.88e7 | – | 1.82e7 | 9.90e6 | inactive |
| Smug | DRSC15762 | 3.61e7 | 5.49e7 | – | 1.81e7 | 6.53e7 | inactive |
| RpL31 (Ribosomal protein L31) | DRSC06716 | 1.84e7 | 3.35e7 | – | 1.21e7 | 1.91e7 | inactive |
| BORCS7 + CG13430 | DRSC06392 | 3.65e7 | 3.65e7 | – | 1.69e7 | 1.78e7 | inactive |
| BORCS7 + CG13430 | DRSC06707 | 1.89e7 | 2.81e7 | – | 1.07e7 | 1.24e7 | inactive |
| HmgD (High mobility group protein D) | DRSC04619 | 2.15e7 | – | – | 1.15e7 | – | inactive |
| Rab27 | DRSC18567 | 2.11e7 | 2.65e7 | – | 9.64e6 | 1.23e7 | inactive |
| CG31265 | DRSC15745 | 4.03e7 | 4.48e7 | – | 1.97e7 | 5.62e7 | inactive |
| CG33252 | DRSC19162 | 3.47e7 | 3.41e7 | – | 1.73e7 | 1.60e7 | inactive |
| Atg4b (Autophagy-related 4b) | DRSC15988 | 4.29e7 | 5.30e7 | – | 1.56e7 | 2.13e7 | inactive |
| CG13360 | DRSC18536 | 5.64e7 | 3.61e7 | – | 2.46e7 | 1.84e7 | inactive |
| Cyp6a22 (Cytochrome P450 6a22) | DRSC07382 | 4.16e7 | 3.96e7 | – | 1.95e7 | 1.89e7 | inactive |
| Rtc1 | DRSC20285 | 2.87e7 | 2.53e7 | – | 1.75e7 | 1.41e7 | inactive |
| BomS1 (Bomanin Short 1) | DRSC22678 | 2.70e7 | 2.05e7 | – | 1.33e7 | 8.42e6 | inactive |
| Alas (Aminolevulinate synthase) | DRSC04044 | 3.87e7 | – | – | 1.97e7 | – | inactive |
| nudC | DRSC11096 | 3.24e7 | 4.59e7 | – | 1.68e7 | 1.95e7 | inactive |
| nudC | DRSC11097 | 2.93e7 | 4.13e7 | – | 1.62e7 | 1.89e7 | inactive |
| Gr61a (Gustatory receptor 61a) | DRSC08358 | 3.50e7 | 3.61e7 | – | 1.82e7 | 1.74e7 | inactive |
| Muc4B (Mucin 4B) | DRSC18062 | 3.46e7 | 4.47e7 | – | 2.12e7 | 2.33e7 | inactive |
| Muc4B (Mucin 4B) | DRSC18063 | 2.93e7 | 4.66e7 | – | 1.51e7 | 2.21e7 | inactive |
| CG34196 | DRSC05704 | 2.66e7 | 3.10e7 | – | 1.28e7 | 1.48e7 | inactive |
| CG8490 | DRSC07194 | 3.43e7 | 4.21e7 | – | 1.54e7 | 1.95e7 | inactive |
| Eglp1 (Entomoglyceroporin 1) | DRSC04502 | 4.24e7 | – | – | 2.30e7 | – | inactive |
